Values quoted from earlier work, collected in patent US20230000943A1, “METHOD OF INDUCING SYNAPTOGENESIS BY ADMINISTERING ANGIOTENSIN AND ANALOGUES THEREOF” (Synaptogenix, Inc., priority 2021, published 2023).
At least one compound was matched to its structure with a doubt left.

System: HGF or PKC in K562 cells
Settings: cited from earlier work

SMILES: C=C(C)[C@@]12C[C@@H](COC(=O)c3ccccc3)[C@@]34OC5(O[C@@H]1[C@@H]3[C@@H]1O[C@]1(CO)[C@@H](O)[C@@]1(O)[C@H]4[C@H]([C@H](C)[C@@H]1OC(=O)c1ccccc1)[C@H](C)CCCCCC[C@H]5O)O2 [Gnidimacrin]
- concentration at which it acts as HGF or PKC activator: 0.3 nM
